# In all, about 340,000 compounds went through this assay and about 170 (0.05%) were called active. Inconclusive means that the source gave no clear call. Such entries were picked first, then a sample of the others. Calls come from the whole dose curve; as a rule, active = well fitted inhibition curve with a large enough effect in the signal ratio, with a control signal flat (not every such curve was filed as active); inconclusive = small, poorly fitted or top-dose-only effect, or effect the other way, or a change in a side signal; inactive = flat fitted curve, though single readings scatter; the % refers to the signal ratio. Potencies beside an inconclusive call are fits to weak or partial responses and may not hold up.
# Test: qHTS Assay to Find Inhibitors of Chronic Active B-Cell Receptor Signaling;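 for activity change, negative = inhibition: plate controls were basal doxycycline-induced cells for no effect and cells given 10 µM MG132 for full effect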
# Settings: ABC-DLBCL IkBa-CBG/CBR reporter, luminescence ratio (green luciferase fused to IkBa over red control in TMD8 lymphoma cells), 4 h; activity change, negative = inhibition: at 46.1 µM (top of the series)
# Outline: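 Cell line TMD8 (human ABC DLBCL), stably expressing tet-inducible CBG68-IkBa fusion and CBR; IMDM/0.5% FBS; cpd up to 46 uM; dox induction, 4 h, 37C/5% CO2; dual luminescence; green/red ratio; MG132 control.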
# Potency is the fitted concentration of half-maximal effect.
Compound,Potency,"activity change, negative = inhibition"
Clc1cccc(-c2nnc(-c3ccccc3)o2)c1,"inconclusive: 20.6 µM [falling, partial curve]",–
CCOC(=O)c1cc(-c2ccccc2)n(-c2cccc(C(=O)Nc3cccc(F)c3)c2)c1C,–,inactive
COc1cc(C2C=C(Nc3ccccc3)C(=O)N2c2ccccc2)ccc1O (stereo unspecified),"inconclusive: 18.4 µM [falling, single point]",–
CCN(CC)S(=O)(=O)c1ccc(NC(=O)c2ccc(OCC3CCCO3)cc2)cc1 (stereo unspecified),–,inactive
CC1CCCCC1NC(=O)/C(C#N)=C/c1ccccc1F (stereo unspecified),"inconclusive: 29.1 µM [falling, single point]",–
CN1C(=O)Cc2cc(S(=O)(=O)Nc3ccc(Cl)cc3)ccc21,–,inconclusive: 6.44%
O=C1N(Cc2cccc(Cl)c2)C[C@@H]2C[C@@H](c3ccccn3)N3CCC[C@@]123,–,inconclusive: -9.58%
CC1CCCCN1C(=O)CSc1nnc(-c2ccccc2F)o1 (stereo unspecified),–,inconclusive: 5.76%
CC1CCCC(C)N1C(=O)CSc1nnc(-c2ccco2)n1C (stereo unspecified),–,inactive
Cc1cc(N/C=C\c2nnnn2-c2ccccc2)no1,"inconclusive: 23.1 µM [rising, partial curve, poor fit]",–
COc1c(C)cc(S(=O)(=O)N2CCCC2)c(C)c1C,–,inconclusive: 36.8%
Cc1cc(C)n(C(=O)/C(C#N)=N/Nc2cc(Cl)cc(Cl)c2)n1,–,inactive
Cc1cccc(OCc2ccc(C(=O)Nc3ccc(F)cc3)cc2)c1,–,inconclusive: 6.51%
Cc1cccc(S(=O)(=O)N2CCN(Cc3ccc4c(c3)OCO4)CC2)c1,–,inactive
Cc1ccc(C)c(-n2nnnc2Sc2nnnn2-c2ccccc2)c1,–,inconclusive: -3%
CC(C)CC1Nc2ncnc(N3CCOCC3)c2N(Cc2ccccc2)C1=O (stereo unspecified),–,inactive
CC(=O)C(=Nc1ccccc1Cl)NNc1ccc(Cl)cc1,–,inconclusive: 24.5%
CCOc1ccc(N2C(=O)S/C(=C\c3ccc(O)c(OCC)c3)C2=O)cc1,–,inconclusive: -0.606%
C=CCN1CCN(C(CCC)c2nnnn2Cc2ccco2)CC1 (stereo unspecified),"inconclusive: 3.16 µM [falling, single point]",–
Cc1cccc(-n2c(SCc3cc(=O)n4c(C)cccc4n3)nc3[nH]ncc3c2=O)c1,"inconclusive: 18.4 µM [falling, partial curve]",–
COC(=O)[C@@H](NC(=O)c1ccccc1OC1CCN(S(C)(=O)=O)CC1)C(C)C,–,inconclusive: 6.58%
CN(C)c1ccc(/C=N\NC(=S)SCN2C(=O)C3CCC(C)(C2=O)C3(C)C)cc1 (stereo unspecified),"inconclusive: 6.51 µM [rising, full curve, poor fit]",–
CCCCCCOc1ccc(C(=O)NCCCn2ccnc2)cc1,–,inconclusive: 10.1%
Cc1cc(C(=O)Nc2ccccc2C)on1,"inconclusive: 20 µM [falling, single point]",–
CNC(=O)c1cc(C(=O)c2ccc(C(F)(F)F)cc2)c[nH]1,–,inconclusive: 2.42%
CN(Cc1ccccc1)S(=O)(=O)c1ccc(NC(=S)NC(=O)C2CCCC2)cc1,–,inconclusive: 1.41%

Compound,Potency,"activity change, negative = inhibition"
CC(C)c1ccc(NC(=O)c2snc3ccc(Cl)cc23)cc1,–,inactive
CN(CC(=O)Nc1ccc(F)c(F)c1F)C(=O)c1nn(Cc2ccccc2)c(=O)c2ccccc12,–,inactive
COc1cccc(C(=O)NNC2=CC(=O)CC(C)(C)C2)c1,"inconclusive: 12.6 µM [falling, partial curve]",–
COc1ccc2c(c1)N(C(=O)CN1C(=O)C3CCCCC3C1=O)C(C)(C)C=C2C (stereo unspecified),"inconclusive: 32.6 µM [falling, partial curve, poor fit]",–
Fc1ccc(Nc2nc(N3CCOCC3)c3ccccc3n2)cc1,–,inconclusive: 1.25%
COc1cc2c(cc1OC)C1O[C@](c3ccsc3)(C2)OC2=C1C(=O)CC(C)(C)C2,"inconclusive: 5.01 µM [rising, single point]",–
COc1ccc(C(=O)CC(=O)C(=O)Nc2ccc(C)c(C)c2)cc1,–,inactive
O=C(/C=C/c1ccc2c(c1)OCO2)Nc1c(C(=O)O)[nH]c2ccccc12,–,inconclusive: -26.2%
CC(c1ccccc1)n1c(-c2cccs2)nc2c(c(=O)c3ccccc3n2C)c1=O (stereo unspecified),–,inconclusive: 2.99%
c1ccc(-n2ncc3c2ncn2nc(-c4ccco4)nc32)cc1,–,inconclusive: 7.4%
Cc1[nH]c2ccccc2c1C(=O)COc1ccccc1F,"inconclusive: 14.1 µM [falling, partial curve, poor fit]",–
Cc1cc(-c2ccccc2)n2nc(N)nc2n1,–,inconclusive: 12.9%
O=C(N/N=C/c1sc(=O)n(-c2ccccc2)c1Cl)c1ccncc1,"inconclusive: 23.1 µM [falling, partial curve, poor fit]",–
COc1cc(/C=N/NC(=O)c2c(-c3ccccc3)noc2C)cc(OC)c1OC,–,inconclusive: -10.3%
O=C(O)c1ccc(/C=N/Nc2nnnn2-c2ccccc2)cc1,"inconclusive: 18.4 µM [falling, partial curve]",–
Cc1cc(C(=O)N/N=C/c2ccc(-c3cccc(Cl)c3Cl)o2)n[nH]1,–,inconclusive: 2.9%
Cc1nc(N[C@@H](Cc2c[nH]c3ccccc23)C(=O)O)c2oc3ccccc3c2n1,"inconclusive: 7.08 µM [falling, full curve]",–
CCOC(=O)N1CCc2[nH]c3ccc(C)cc3c2C1,"inconclusive: 3.16 µM [falling, full curve, poor fit]",–
COc1ccc(Br)cc1C1N2CC3(C)CN1CC(C)(C2)C3=O (stereo unspecified),–,inconclusive: 2.59%
COc1ccc(C(=O)N/N=C(\C)CC(=O)Nc2ccc3c(c2)OCCO3)c(OC)c1,"inconclusive: 35.5 µM [falling, single point]",–
CCCn1nc(C(=O)N2CC(=O)Nc3ccccc32)c2ccccc2c1=O,–,inconclusive: 2.13%
Cc1ccc(-c2nc(CN(C)C3CCOCC3)c(C)o2)s1,"inconclusive: 35.5 µM [rising, partial curve, poor fit]",–
O=C(NC1CC(=O)N(c2cccc(F)c2)C1)c1ccc(S(=O)(=O)N2CCCC2)cc1 (stereo unspecified),–,inactive
COC(=O)CSc1ncnc2c1sc1nc(N3CCOCC3)c3c(c12)CCCC3,–,inconclusive: 1.88%
CC(C)COc1ccc(N)cc1OCC(C)C,–,inactive
COCCCNC(=S)N/N=C/c1ccccc1O,"inconclusive: 3.55 µM [falling, single point]",–

# In another format: entries from further up.
Compound | Potency | activity change, negative = inhibition
O=C(O)c1ccc(/C=N/Nc2nnnn2-c2ccccc2)cc1 | inconclusive: 18.4 µM [falling, partial curve] | –
Cc1cc(C(=O)N/N=C/c2ccc(-c3cccc(Cl)c3Cl)o2)n[nH]1 | – | inconclusive: 2.9%
Cc1nc(N[C@@H](Cc2c[nH]c3ccccc23)C(=O)O)c2oc3ccccc3c2n1 | inconclusive: 7.08 µM [falling, full curve] | –

# Laid out differently: results already given
Compound	Potency	activity change, negative = inhibition
CC(C)c1ccc(NC(=O)c2snc3ccc(Cl)cc23)cc1	–	inactive
CN(CC(=O)Nc1ccc(F)c(F)c1F)C(=O)c1nn(Cc2ccccc2)c(=O)c2ccccc12	–	inactive

# Additional compounds follow:

Compound,Potency,"activity change, negative = inhibition"
C=CCn1c(=S)[nH]c2ccc(Br)cc2c1=O,"inconclusive: 29.1 µM [falling, single point]",–
CCOC(=O)CSC1=N/C(=C/c2ccc(-n3cncn3)cc2)C(=O)N1C(C)=O,–,inconclusive: -22.9%
CCCCCCNC(=O)Cc1nc2nc(C)cc(C)n2n1,–,inconclusive: 9.53%
COc1cc(NC(=O)c2ccccc2)c(OC)cc1NC(=O)CN1C(=O)N(C)C2(CCCCC2)C1=O,–,inactive
Cn1c2ccccc2c2ncn(CCCN3CCOCC3)c(=O)c21,–,inactive
O=C(Nc1ccc(Cl)cc1)C1CCCN(c2ncnc3c2nc2n3CCCCC2)C1 (stereo unspecified),–,inactive
c1ccc(-c2csc(N3CCN(c4ccccn4)CC3)n2)cc1,"inconclusive: 22.4 µM [falling, single point]",–
CCOC(=O)c1c(C)[nH]c(C(=O)N/N=C/c2ccc(OC)c(OC)c2)c1C,"inconclusive: 11.2 µM [falling, partial curve]",–
NC(=O)CCCn1c(C(=O)c2ccc(Cl)cc2)c2ccc([N+](=O)[O-])cc2[n+]1[O-],"inconclusive: 8.2 µM [falling, partial curve, poor fit]",–
CC(NC(=O)CCCC1=NS(=O)(=O)c2ccccc2N1)c1ccccc1 (stereo unspecified),–,inactive
O=[N+]([O-])c1ccccc1S(=O)(=O)NCCC1=CCCCC1,–,inconclusive: -0.45%
CCOC(=O)c1c(C)cc(C)[nH]c1=O,–,inconclusive: 24.5%
O=C(Nc1ccc(OC(F)(F)F)cc1)C1CCCN(S(=O)(=O)c2cnc[nH]2)C1 (stereo unspecified),"inconclusive: 15.8 µM [falling, partial curve]",–
CCn1cc(C(=O)O)c(=O)c2cnc(N3CCN(C(=S)Nc4ccc(F)cc4)CC3)nc21,–,inconclusive: 11.7%
Cc1cc(C(=O)COC(=O)c2cc(Cl)ccc2N)c(C)n1Cc1ccco1,–,inactive
C=CCn1c(SCC(=O)NCCc2ccccc2)nnc1C1CC1,–,inconclusive: 11.9%
C=C(C)CNC(=S)N=Nc1c(O)[nH]c2ccc([N+](=O)[O-])cc12,"inconclusive: 22.4 µM [falling, single point]",–
O=C(N/N=C/c1ccc(Br)s1)c1ccncc1,"inconclusive: 35.5 µM [cytotoxic, single point]",–
Cc1cccc(NC(=O)CNC(=O)COc2cccnc2[N+](=O)[O-])c1C,"inconclusive: 29.1 µM [falling, partial curve, poor fit]",–
C/C(CCC(=O)OC[C@H]1O[C@H](C#Cc2ccccc2)C=C[C@@H]1Oc1ccc(C)cc1)=N\OC[C@@H](O)[C@H]1O[C@@H]2OC(C)(C)O[C@@H]2[C@H]1O,"inconclusive: 18.4 µM [falling, single point]",–
COc1ccc(C)cc1Nc1nc(N)c2ccccc2n1,–,inactive
COc1ccccc1N1CCN(c2ncnc3sc(C(=O)NCC4CCCO4)c(C)c23)CC1 (stereo unspecified),–,inactive
Cc1cccc(NC(=O)c2cc(S(=O)(=O)N3CCc4ccccc43)ccc2F)c1C,–,inconclusive: -21.3%
COC(=O)CN1C(=O)[C@H]2[C@@H](c3ccc(C)o3)N3C(=O)CN(CCO)C(=O)[C@@]3(C)[C@H]2C1=O,"inconclusive: 31.6 µM [falling, single point]",–
